No constants are given. Whether binding was seen depends on the method and setting. In cells and extracts the contact can be indirect. Here binding means that the protein was enriched with, or labelled near, the bait; the list need not be complete.
B1: GPRC5A (receptor, UniProt Q8BHL4 1-356)
chain: MTTPTTAPSGCRSDLDSRYHRLCDLAEGWGIALETLAAVGAVATVACMFALVFLICKVQDSNKRKMLPAQFLFLLGVLGVFGLTFAFIIKLDGATGPTRFFLFGVLFAICFSCLLAHAFNLIKLVRGRKPLSWLVILSLAVGFSLVQDVIAIEYLVLTMNRTNVNVFSELPAPRRNEDFVMLLIYVLVLMVLTFFTSFLVFCGSFSGWKRHGFHICFTSFLSIAIWVAWIVLLLIPDIDRKWDDTILSTALVANGWVFLAFYILPEFRQLPRQRSPTDYPVEDAFCKPQLMKQSYGVENRAYSQEEITQGLEMGDTLYAPYSTHFQLQNHQKDFSIPRAQAPASPYNDYEGRKGDS

By UniProt entry, the sequences of proteins in these tests, tags left out.
UniProt Q9ER71: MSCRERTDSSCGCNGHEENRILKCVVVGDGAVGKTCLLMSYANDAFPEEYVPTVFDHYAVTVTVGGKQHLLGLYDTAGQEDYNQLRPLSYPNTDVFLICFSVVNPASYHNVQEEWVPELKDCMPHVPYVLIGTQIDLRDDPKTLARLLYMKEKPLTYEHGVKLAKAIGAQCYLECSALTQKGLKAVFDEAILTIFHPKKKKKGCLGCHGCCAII
UniProt Q80X90: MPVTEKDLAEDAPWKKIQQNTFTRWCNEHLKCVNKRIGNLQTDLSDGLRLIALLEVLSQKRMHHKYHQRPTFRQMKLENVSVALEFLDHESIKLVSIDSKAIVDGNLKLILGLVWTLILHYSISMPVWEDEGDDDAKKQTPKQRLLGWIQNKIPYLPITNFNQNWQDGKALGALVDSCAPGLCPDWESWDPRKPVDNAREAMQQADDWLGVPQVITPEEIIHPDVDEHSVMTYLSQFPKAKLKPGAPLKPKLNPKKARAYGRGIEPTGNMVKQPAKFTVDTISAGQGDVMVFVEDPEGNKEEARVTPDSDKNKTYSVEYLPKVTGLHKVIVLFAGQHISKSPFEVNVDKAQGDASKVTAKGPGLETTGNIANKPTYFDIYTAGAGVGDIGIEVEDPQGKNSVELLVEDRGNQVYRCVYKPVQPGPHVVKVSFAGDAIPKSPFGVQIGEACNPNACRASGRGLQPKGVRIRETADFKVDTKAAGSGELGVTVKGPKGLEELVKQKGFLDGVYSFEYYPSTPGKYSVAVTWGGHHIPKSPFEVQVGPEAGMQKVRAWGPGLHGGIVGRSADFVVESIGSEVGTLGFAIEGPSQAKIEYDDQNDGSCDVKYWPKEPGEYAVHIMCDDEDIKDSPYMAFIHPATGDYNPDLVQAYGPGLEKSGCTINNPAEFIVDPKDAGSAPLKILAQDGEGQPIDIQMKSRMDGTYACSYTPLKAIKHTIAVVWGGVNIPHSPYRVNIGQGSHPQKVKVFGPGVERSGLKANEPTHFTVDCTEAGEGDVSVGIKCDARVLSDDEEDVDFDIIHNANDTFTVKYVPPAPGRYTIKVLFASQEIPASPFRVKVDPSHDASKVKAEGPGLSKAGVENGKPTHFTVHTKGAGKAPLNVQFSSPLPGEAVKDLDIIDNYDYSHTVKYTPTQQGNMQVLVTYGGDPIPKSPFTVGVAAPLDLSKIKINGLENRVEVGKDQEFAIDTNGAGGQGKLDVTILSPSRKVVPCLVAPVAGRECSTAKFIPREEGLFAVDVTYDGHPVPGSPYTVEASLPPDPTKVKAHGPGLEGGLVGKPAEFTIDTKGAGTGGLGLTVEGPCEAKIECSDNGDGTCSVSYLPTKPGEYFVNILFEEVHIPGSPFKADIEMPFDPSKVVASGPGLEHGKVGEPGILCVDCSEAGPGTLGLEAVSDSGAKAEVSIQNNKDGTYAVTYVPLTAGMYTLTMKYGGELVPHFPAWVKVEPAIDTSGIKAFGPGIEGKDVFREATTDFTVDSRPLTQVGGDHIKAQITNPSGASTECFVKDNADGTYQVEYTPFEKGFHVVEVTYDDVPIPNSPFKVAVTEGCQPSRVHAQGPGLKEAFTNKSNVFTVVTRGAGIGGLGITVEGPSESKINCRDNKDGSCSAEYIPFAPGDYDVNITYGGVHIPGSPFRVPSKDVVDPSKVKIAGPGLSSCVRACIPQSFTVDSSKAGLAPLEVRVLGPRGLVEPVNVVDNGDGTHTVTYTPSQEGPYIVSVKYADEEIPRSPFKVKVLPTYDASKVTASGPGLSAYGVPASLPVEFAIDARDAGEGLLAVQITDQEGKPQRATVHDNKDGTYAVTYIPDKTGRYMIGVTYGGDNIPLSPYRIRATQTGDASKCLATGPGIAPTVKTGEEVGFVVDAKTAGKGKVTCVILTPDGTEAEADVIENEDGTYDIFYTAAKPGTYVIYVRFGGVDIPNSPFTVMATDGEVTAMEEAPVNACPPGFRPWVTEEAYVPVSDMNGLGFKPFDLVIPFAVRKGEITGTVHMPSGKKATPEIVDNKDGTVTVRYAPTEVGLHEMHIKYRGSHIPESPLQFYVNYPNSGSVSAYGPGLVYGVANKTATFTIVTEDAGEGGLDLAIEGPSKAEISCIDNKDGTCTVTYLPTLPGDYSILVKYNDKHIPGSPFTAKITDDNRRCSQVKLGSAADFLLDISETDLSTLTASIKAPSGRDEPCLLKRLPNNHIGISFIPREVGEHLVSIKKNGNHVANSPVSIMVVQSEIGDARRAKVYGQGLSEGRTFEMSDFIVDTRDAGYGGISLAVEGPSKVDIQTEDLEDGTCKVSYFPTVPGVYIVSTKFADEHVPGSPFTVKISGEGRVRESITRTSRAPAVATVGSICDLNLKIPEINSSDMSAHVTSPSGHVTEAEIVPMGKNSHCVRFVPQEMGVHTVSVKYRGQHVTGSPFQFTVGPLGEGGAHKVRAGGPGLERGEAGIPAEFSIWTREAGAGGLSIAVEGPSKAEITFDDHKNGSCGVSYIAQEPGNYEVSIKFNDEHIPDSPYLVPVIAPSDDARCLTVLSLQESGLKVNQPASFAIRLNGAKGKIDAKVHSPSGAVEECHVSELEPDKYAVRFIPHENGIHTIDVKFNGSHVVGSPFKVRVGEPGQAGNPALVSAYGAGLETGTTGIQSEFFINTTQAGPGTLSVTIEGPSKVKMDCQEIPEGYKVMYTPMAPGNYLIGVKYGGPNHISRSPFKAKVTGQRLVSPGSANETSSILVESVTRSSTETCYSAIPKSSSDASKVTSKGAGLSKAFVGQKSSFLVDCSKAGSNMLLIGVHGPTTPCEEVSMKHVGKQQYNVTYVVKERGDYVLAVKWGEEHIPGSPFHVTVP
UniProt Q91YE6: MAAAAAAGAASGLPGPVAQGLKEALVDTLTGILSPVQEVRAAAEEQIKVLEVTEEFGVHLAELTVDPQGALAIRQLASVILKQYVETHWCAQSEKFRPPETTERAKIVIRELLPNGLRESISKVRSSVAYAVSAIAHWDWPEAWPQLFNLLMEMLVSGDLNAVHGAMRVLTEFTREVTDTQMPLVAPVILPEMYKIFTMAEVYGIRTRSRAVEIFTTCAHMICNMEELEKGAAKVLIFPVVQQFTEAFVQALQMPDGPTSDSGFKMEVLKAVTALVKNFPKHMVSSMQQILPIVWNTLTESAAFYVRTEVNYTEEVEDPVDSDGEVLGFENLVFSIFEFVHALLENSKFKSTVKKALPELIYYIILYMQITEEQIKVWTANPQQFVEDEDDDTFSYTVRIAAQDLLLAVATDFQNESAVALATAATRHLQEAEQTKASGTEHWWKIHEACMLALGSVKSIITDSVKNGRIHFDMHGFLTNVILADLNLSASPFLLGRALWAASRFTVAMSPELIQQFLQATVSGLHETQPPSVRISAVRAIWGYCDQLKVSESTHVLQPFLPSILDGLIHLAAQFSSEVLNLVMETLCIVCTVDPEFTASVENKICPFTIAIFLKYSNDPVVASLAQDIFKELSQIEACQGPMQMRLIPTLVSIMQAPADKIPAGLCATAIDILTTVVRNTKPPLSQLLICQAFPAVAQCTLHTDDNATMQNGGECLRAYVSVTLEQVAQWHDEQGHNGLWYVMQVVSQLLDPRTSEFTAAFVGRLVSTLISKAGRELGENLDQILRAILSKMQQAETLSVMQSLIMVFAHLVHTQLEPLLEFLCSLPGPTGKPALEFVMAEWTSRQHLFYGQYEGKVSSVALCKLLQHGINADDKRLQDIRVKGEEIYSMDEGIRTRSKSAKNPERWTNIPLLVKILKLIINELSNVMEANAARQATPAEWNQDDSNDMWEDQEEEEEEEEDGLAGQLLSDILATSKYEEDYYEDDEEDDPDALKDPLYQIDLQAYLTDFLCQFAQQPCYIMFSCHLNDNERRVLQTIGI
UniProt P26039: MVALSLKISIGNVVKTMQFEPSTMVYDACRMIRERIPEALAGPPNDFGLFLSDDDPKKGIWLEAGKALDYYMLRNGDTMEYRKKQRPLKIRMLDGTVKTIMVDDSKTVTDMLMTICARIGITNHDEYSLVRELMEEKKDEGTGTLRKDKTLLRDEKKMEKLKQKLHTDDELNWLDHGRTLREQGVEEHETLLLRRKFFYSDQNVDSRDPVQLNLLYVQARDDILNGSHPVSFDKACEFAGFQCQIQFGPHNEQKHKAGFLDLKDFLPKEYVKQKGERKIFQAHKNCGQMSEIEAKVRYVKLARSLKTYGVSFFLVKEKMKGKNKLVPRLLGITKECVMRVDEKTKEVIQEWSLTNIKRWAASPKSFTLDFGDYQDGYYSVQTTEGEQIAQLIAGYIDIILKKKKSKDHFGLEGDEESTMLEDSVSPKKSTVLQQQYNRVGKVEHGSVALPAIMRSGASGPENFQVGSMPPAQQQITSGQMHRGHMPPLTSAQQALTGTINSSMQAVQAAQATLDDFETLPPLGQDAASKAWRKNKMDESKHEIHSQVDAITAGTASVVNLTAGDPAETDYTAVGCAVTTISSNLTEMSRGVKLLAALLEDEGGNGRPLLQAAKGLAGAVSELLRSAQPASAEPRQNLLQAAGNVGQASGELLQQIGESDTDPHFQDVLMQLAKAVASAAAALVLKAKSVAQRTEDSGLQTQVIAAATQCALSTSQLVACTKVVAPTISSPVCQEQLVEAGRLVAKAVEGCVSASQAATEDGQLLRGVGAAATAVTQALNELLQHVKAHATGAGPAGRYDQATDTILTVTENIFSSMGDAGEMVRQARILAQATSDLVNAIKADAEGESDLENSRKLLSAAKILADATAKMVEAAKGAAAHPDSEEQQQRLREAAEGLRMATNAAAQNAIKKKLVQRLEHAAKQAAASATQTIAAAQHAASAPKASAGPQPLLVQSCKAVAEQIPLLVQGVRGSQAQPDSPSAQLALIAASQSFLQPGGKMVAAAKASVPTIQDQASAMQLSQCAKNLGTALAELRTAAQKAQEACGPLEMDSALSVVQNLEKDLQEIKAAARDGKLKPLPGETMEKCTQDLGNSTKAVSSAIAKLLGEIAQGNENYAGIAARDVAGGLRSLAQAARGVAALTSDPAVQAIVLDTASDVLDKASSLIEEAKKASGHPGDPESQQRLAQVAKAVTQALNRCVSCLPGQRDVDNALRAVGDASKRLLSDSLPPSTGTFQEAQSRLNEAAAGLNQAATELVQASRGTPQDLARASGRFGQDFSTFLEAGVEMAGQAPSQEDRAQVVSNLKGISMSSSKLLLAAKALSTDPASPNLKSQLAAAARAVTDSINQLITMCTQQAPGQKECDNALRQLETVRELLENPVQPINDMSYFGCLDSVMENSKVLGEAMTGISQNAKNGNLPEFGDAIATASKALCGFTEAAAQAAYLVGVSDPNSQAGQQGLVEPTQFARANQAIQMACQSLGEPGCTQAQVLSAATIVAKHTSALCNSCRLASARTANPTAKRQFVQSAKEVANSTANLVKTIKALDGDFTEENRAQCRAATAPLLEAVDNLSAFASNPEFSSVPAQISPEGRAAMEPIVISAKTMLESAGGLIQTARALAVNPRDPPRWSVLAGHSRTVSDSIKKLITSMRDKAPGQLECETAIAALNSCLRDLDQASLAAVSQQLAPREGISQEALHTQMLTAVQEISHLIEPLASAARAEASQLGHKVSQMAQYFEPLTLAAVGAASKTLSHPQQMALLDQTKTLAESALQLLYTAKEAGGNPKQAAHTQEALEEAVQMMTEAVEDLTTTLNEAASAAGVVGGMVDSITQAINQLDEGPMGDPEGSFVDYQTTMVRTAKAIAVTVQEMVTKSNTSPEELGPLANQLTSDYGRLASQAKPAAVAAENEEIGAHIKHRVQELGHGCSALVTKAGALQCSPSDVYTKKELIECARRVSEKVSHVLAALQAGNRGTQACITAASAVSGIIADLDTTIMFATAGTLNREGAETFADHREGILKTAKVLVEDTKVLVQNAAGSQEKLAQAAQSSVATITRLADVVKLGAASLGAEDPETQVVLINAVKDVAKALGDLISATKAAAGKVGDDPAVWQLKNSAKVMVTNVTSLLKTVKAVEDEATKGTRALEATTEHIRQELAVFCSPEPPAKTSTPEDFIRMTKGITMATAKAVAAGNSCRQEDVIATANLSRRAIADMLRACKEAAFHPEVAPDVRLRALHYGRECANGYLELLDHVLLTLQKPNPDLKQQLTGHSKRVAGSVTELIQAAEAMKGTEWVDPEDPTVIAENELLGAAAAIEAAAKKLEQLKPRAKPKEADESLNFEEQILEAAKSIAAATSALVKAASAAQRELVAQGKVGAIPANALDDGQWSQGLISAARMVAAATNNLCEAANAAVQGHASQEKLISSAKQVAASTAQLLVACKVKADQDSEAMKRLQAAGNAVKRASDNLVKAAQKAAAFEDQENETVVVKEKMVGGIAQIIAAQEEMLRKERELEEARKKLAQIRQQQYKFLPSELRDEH

Target: 3HA-tagged RHOJ (UniProt Q9ER71)
Assay: affinity purification with mass spectrometry; anti-HA immunoprecipitation (rabbit HA tag ab9110, Dynabeads Protein G) from 1 mg lysate of EPCAM− cells expressing 3HA-tagged RHOJ versus empty vector; cells untreated (DMSO) or treated 12 h with cisplatin/5FU; lysis buffer 150 mM NaCl, 50 mM HEPES pH 7.5, 2 mM EDTA, 1% Triton X-100; on-bead trypsin digestion, LC-MS/MS, FDR <0.05 and fold change >2

binding, binds:
FLNB (from UniProt Q80X90 1-2602), IPO9 (from UniProt Q91YE6 1-1041), TLN1 (from UniProt P26039 1-2541), B1
